Source: PMC7719796, “Structural Insights on Tiny Peptide Nucleic Acid (PNA) Analogues of miRNA-34a: An in silico and Experimental Integrated Approach” (Frontiers in Chemistry, 2020)

Test system: Kelly neuroblastoma cells
Assay: Confocal microscopy of cellular uptake / subcellular localization
Assay type: cell-based, Human
Details: 2.5 μM, no transfection agent, fixed cells
Experimental: The FITC-PNA2 and FITC-PNA3 cellular uptake was also assessed by confocal microscopy (Figure 9B). The membrane/nuclei optimal staining protocol and stain compatibility were screened on live and fixed cells in order to achieve the best image resolution. The coverslips were pre-treated with collagen prior to cells being seeded and incubated for 24 h with 2.5 μM solutions for each of PNAs. […] The cellular uptake of tiny FITC-PNA2 and FITC-PNA3 in the absence of any transfection agent was unexpectedly low if compared to longer sequences, as previously reported by our group (Piacenti et al., [2019]). The employment of endosome disrupting agents and dose/uptake correlation needs further exploration as well as conjugation to different peptide carriers (R8) or different delivery strategies (e.g., liposomes).
Eight well-coverslips were treated with 0.2 mM solution of collagen in DMEM, and incubated at 0–4°C overnight. The wells were washed with PBS before seeding. Kelly cells were plated at 10^4 cells/well density. After 48 h from seeding, the growth media was replaced with serum-free media and cells were treated with 200 μL of 2.5 μM solutions of FITC-PNA2 and FITC-PNA3 in Opti-MEM. Wells were gently agitated to provide an even treatment of the cells and incubated at 37°C for 6 h. After incubation, 100 μl of 40% FBS in RPMI were added to each well in the 8-well coverslip. […]

Row | Substance | Subcellular localization of FITC fluorescence
1 | FITC- Ahx -CK - tggcagtg—KKK- NH2 [FITC-PNA3, PNA1 with Cys-Lys at N-terminus and KKK at C-terminus, FITC-Ahx; reported in previous work, used for comparison] | localized in vesicular shapes in the cytosol
2 | FITC- Ahx -K- tggcagtg—KKK-NH2 [FITC-PNA2, PNA1 with K at N-terminus and KKK at C-terminus, Ahx linker and FITC fluorescent tag] | localized in vesicular shapes in the cytosol
